For assay [1], the target named is C-terminally miniTurbo-tagged KEAP1 (UniProt Q14145). Kind of assay: proximity labelling.
Assay [2] addresses N-terminally miniTurbo-tagged KEAP1 (UniProt Q14145). As to the kind of experiment: proximity labelling.

Protein sequences, listed by entry. Tags and fused reporters are not part of them.
UniProt Q14145: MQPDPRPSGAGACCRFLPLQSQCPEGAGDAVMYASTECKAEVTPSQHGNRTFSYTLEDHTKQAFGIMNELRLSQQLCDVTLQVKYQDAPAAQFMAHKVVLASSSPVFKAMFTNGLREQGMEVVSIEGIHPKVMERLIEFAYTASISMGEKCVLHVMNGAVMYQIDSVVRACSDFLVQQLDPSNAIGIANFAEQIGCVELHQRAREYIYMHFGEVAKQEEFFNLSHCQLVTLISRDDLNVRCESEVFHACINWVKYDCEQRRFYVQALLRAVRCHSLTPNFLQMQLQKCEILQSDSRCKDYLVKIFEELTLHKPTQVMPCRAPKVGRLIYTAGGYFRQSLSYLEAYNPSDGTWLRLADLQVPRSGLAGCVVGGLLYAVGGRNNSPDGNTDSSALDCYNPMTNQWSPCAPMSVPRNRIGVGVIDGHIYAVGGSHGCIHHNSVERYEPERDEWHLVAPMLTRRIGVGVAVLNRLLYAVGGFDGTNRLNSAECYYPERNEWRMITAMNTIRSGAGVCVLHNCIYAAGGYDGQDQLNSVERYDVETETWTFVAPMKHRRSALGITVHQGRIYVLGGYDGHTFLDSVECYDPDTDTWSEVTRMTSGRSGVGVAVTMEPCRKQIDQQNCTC
UniProt O75155: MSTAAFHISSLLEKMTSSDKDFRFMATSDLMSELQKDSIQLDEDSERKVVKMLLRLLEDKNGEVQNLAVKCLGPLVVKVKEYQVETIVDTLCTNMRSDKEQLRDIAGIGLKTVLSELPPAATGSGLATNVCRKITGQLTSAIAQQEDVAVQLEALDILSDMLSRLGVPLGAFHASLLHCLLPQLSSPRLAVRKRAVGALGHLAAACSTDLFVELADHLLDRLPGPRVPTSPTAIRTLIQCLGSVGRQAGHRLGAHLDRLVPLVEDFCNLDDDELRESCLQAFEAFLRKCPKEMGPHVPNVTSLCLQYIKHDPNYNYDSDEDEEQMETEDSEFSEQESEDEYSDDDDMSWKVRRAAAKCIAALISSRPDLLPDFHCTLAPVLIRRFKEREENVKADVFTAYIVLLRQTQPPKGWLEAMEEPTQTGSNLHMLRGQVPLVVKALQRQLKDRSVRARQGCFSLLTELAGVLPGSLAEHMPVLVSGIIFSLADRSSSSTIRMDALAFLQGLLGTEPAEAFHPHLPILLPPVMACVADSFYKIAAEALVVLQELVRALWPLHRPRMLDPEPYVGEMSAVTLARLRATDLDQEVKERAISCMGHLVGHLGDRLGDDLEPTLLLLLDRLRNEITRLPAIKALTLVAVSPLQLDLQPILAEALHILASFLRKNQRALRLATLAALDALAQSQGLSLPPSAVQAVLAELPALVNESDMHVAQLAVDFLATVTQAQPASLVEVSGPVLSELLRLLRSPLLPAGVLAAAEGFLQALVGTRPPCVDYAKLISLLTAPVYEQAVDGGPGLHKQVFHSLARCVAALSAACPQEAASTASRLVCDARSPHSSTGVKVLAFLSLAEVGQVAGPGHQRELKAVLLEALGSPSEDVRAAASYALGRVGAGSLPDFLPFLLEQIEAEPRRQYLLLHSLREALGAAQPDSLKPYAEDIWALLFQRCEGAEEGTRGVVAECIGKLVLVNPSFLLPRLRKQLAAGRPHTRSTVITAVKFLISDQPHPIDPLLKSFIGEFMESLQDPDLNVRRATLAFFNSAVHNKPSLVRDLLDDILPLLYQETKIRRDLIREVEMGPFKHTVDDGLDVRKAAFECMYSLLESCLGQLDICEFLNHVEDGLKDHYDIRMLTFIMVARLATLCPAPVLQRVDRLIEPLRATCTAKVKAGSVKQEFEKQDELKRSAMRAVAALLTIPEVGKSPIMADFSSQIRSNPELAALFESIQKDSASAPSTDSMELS
UniProt Q9H2G2: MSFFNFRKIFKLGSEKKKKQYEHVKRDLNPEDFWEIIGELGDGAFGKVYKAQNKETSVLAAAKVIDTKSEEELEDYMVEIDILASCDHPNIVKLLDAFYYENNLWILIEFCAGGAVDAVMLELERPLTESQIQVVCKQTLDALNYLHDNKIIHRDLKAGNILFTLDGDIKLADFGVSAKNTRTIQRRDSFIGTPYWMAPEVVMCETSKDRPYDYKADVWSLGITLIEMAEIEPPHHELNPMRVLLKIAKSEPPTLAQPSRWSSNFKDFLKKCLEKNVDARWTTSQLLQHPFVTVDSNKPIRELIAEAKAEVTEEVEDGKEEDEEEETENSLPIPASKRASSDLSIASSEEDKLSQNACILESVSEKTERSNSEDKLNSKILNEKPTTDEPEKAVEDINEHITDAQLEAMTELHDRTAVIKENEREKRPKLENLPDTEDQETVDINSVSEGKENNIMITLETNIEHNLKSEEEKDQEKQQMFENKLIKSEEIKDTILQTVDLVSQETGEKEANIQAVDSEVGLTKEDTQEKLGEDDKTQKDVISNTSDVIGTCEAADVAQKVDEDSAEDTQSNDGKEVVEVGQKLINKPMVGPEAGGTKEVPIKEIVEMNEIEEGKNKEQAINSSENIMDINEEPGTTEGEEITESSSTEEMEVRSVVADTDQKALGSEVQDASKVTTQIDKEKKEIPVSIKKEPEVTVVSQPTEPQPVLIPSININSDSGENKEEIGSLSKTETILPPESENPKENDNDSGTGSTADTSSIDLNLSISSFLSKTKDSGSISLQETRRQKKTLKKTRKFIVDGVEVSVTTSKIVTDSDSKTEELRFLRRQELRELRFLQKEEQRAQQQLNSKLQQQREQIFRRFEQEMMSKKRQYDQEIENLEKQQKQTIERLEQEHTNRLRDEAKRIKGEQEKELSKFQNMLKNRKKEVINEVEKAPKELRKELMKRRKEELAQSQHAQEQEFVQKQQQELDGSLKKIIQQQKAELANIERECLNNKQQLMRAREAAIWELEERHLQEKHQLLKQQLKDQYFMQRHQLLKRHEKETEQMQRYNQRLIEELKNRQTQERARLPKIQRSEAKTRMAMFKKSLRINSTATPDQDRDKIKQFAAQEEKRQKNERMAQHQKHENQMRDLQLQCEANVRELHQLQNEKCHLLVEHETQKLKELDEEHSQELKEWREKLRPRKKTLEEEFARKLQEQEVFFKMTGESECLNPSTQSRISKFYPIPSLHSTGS

These are yes or no findings as the source states them, for the method shown. Binding seen in cells or lysates may run through a third protein. A yes stands for co-enrichment or nearness to the bait. Other partners may have been found.

On to “CAND2, endogenous (from UniProt O75155 1-1236)”, for which the binding entry in assay [1] and in assay [2] was “binds” throughout.
“SLK, endogenous (from UniProt Q9H2G2 1-1235)”: the binding entry in assay [2] is “binds”.

B1: MCM3, endogenous (protein, UniProt P25205 1-808)
chain: MAGTVVLDDVELREAQRDYLDFLDDEEDQGIYQSKVRELISDNQYRLIVNVNDLRRKNEKRANRLLNNAFEELVAFQRALKDFVASIDATYAKQYEEFYVGLEGSFGSKHVSPRTLTSCFLSCVVCVEGIVTKCSLVRPKVVRSVHYCPATKKTIERRYSDLTTLVAFPSSSVYPTKDEENNPLETEYGLSVYKDHQTITIQEMPEKAPAGQLPRSVDVILDDDLVDKAKPGDRVQVVGTYRCLPGKKGGYTSGTFRTVLIACNVKQMSKDAQPSFSAEDIAKIKKFSKTRSKDIFDQLAKSLAPSIHGHDYVKKAILCLLLGGVERDLENGSHIRGDINILLIGDPSVAKSQLLRYVLCTAPRAIPTTGRGSSGVGLTAAVTTDQETGERRLEAGAMVLADRGVVCIDEFDKMSDMDRTAIHEVMEQGRVTIAKAGIHARLNARCSVLAAANPVYGRYDQYKTPMENIGLQDSLLSRFDLLFIMLDQMDPEQDREISDHVLRMHRYRAPGEQDGDAMPLGSAVDILATDDPNFSQEDQQDTQIYEKHDNLLHGTKKKKEKMVSAAFMKKYIHVAKIIKPVLTQESATYIAEEYSRLRSQDSMSSDTARTSPVTARTLETLIRLATAHAKARMSKTVDLQDAEEAVELVQYAYFKKVLEKEKKRKKRSEDESETEDEEEKSQEDQEQKRKRRKTRQPDAKDGDSYDPYDFSDTEEEMPQVHTPKTADSQETKESQKVELSESRLKAFKVALLDVFREAHAQSIGMNRLTESINRDSEEPFSSVEIQAALSKMQDDNQVMVSEGIIFLI
On to B1, for which the binding entry in assay [2] was “binds”.

B2: TSC22D4, endogenous (protein, UniProt Q9Y3Q8 1-395)
chain: MSGGKKKSSFQITSVTTDYEGPGSPGASDPPTPQPPTGPPPRLPNGEPSPDPGGKGTPRNGSPPPGAPSSRFRVVKLPHGLGEPYRRGRWTCVDVYERDLEPHSFGGLLEGIRGASGGAGGRSLDSRLELASLGLGAPTPPSGLSQGPTSWLRPPPTSPGPQARSFTGGLGQLVVPSKAKAEKPPLSASSPQQRPPEPETGESAGTSRAATPLPSLRVEAEAGGSGARTPPLSRRKAVDMRLRMELGAPEEMGQVPPLDSRPSSPALYFTHDASLVHKSPDPFGAVAAQKFSLAHSMLAISGHLDSDDDSGSGSLVGIDNKIEQAMDLVKSHLMFAVREEVEVLKEQIRELAERNAALEQENGLLRALASPEQLAQLPSSGVPRLGPPAPNGPSV
For the molecule B2, the binding result in assay [2] is listed as “binds”.

Source of the values: paper doi:10.1101/2024.10.04.616592.
